Measured values taken from the supplement of paper PMC12819154, “High-throughput peptide-centric local stability assay extends protein–ligand identification to membrane proteins, tissues and bacteria” (Nature Structural & Molecular Biology, 2025).
The list shows a part of the results. Most values lie at the level of the controls, where differences are scatter.

By UniProt entry, the sequences of proteins in these tests, tags left out. Where a name states a change or a piece, a line headed by the entry shows the natural chain unless it says otherwise.
UniProt O94925: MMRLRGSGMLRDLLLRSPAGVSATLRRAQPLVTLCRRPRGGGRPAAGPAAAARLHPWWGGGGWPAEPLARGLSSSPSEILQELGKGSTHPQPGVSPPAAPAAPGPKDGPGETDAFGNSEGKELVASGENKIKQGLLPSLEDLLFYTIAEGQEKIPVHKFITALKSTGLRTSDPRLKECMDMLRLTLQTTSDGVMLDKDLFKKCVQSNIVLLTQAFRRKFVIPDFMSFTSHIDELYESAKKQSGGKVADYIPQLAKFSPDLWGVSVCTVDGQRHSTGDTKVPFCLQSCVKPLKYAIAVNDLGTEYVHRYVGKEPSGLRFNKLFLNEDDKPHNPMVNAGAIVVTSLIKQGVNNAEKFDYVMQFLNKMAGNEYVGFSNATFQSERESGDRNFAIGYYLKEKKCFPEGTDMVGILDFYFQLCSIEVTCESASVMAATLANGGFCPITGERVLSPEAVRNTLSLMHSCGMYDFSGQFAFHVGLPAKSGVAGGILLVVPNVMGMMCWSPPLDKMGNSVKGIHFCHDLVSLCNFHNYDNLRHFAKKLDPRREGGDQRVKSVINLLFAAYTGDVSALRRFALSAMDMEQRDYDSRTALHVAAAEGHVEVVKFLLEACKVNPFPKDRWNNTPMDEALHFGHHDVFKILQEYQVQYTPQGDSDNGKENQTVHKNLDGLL
UniProt O95625: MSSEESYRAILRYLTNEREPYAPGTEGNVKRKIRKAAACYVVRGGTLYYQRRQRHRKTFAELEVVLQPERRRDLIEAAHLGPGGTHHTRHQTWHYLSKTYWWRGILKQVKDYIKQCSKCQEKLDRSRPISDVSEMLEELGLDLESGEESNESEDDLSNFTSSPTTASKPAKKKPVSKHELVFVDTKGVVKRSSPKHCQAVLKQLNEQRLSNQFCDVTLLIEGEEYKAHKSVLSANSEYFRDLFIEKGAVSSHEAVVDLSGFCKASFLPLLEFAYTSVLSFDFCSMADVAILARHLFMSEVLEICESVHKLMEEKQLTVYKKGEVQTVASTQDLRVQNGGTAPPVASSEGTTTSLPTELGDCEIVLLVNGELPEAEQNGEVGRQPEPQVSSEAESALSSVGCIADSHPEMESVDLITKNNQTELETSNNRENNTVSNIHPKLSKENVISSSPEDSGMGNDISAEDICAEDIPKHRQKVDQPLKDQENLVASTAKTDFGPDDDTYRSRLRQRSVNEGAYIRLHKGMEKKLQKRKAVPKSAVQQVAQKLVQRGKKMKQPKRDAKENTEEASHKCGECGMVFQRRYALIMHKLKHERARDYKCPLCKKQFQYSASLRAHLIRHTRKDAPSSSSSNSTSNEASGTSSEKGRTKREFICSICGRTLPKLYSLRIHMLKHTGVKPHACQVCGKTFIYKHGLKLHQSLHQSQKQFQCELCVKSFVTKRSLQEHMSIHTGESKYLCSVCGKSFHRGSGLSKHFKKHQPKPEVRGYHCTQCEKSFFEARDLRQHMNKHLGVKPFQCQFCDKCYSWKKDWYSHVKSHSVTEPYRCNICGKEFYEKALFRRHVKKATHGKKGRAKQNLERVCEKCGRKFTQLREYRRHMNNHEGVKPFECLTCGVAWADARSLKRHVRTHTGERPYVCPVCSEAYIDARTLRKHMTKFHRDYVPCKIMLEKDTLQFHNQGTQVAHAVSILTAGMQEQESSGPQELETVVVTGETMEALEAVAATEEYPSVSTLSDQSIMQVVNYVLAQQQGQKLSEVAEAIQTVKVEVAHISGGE
UniProt O75533, whole entry: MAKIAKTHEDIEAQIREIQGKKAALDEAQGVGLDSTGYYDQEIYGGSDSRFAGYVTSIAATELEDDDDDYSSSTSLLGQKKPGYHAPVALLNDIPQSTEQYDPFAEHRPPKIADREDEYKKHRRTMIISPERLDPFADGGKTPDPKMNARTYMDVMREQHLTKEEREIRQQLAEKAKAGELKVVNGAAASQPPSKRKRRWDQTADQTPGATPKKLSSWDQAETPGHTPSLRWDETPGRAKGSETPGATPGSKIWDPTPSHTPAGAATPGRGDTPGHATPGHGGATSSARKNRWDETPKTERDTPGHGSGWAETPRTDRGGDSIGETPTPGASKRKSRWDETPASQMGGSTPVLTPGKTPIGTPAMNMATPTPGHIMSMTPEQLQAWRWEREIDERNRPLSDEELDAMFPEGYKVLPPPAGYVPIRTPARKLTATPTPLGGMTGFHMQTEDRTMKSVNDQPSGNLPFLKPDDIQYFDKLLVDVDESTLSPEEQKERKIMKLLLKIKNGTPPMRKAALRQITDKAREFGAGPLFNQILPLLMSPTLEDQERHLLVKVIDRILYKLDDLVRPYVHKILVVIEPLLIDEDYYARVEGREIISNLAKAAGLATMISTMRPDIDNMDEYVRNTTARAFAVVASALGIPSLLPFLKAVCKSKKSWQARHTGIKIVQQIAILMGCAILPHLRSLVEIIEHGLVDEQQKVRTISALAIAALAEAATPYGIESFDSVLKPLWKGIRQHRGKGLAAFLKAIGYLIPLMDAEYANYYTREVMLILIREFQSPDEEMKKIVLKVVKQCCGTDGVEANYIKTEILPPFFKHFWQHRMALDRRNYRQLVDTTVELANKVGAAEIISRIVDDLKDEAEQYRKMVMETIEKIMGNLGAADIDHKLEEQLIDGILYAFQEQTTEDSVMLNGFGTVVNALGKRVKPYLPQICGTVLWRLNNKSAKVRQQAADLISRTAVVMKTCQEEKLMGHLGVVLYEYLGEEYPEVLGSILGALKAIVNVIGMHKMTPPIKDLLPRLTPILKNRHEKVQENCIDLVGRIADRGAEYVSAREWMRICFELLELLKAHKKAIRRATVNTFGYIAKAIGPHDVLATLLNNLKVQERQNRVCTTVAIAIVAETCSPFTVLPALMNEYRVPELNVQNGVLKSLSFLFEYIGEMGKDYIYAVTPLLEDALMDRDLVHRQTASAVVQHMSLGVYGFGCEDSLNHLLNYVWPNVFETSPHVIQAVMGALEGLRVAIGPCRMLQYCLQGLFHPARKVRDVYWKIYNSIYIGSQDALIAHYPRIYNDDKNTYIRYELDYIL
UniProt O94906: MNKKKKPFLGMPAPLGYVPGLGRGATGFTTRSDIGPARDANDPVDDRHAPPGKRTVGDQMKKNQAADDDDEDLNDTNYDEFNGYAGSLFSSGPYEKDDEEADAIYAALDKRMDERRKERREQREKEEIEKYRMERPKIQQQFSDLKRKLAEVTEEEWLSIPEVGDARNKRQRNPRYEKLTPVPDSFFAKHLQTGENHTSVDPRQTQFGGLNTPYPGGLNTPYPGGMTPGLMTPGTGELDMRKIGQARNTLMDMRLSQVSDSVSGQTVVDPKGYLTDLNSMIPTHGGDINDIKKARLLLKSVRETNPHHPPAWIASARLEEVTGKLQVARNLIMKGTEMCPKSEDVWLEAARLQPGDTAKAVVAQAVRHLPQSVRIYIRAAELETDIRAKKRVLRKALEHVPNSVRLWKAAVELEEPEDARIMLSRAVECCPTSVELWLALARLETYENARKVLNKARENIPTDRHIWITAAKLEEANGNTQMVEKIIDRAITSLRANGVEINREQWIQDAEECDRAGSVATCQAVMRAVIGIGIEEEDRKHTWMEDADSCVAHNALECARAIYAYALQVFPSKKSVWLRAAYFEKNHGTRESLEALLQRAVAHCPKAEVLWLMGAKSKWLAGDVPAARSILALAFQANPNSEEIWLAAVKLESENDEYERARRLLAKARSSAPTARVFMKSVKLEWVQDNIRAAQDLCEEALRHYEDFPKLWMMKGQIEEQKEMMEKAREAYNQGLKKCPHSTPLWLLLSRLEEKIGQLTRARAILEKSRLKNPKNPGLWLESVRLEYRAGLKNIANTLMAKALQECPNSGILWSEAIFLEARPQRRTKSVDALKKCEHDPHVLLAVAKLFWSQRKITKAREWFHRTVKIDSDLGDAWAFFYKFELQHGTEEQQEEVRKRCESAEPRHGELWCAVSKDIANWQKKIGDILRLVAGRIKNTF
UniProt O95757: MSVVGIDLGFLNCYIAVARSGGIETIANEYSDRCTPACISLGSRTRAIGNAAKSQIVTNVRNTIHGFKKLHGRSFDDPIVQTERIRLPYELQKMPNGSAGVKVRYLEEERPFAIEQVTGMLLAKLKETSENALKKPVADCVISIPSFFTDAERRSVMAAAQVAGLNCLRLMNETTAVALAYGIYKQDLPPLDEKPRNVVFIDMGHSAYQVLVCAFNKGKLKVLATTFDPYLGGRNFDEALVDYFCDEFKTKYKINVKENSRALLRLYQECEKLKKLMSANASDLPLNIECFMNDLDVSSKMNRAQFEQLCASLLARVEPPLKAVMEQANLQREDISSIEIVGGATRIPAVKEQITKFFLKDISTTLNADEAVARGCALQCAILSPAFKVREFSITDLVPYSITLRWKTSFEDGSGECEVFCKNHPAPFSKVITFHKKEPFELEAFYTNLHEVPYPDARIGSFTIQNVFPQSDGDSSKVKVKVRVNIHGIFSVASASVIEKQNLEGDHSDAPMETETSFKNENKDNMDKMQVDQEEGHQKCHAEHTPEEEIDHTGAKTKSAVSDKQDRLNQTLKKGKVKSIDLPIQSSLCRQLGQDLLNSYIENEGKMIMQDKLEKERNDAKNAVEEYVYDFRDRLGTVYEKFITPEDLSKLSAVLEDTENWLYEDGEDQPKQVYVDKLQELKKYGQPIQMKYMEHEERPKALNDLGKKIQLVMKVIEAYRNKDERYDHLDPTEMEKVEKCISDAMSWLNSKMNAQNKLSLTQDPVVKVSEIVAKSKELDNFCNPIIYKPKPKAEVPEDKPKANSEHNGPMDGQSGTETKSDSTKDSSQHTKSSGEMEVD
UniProt O75564: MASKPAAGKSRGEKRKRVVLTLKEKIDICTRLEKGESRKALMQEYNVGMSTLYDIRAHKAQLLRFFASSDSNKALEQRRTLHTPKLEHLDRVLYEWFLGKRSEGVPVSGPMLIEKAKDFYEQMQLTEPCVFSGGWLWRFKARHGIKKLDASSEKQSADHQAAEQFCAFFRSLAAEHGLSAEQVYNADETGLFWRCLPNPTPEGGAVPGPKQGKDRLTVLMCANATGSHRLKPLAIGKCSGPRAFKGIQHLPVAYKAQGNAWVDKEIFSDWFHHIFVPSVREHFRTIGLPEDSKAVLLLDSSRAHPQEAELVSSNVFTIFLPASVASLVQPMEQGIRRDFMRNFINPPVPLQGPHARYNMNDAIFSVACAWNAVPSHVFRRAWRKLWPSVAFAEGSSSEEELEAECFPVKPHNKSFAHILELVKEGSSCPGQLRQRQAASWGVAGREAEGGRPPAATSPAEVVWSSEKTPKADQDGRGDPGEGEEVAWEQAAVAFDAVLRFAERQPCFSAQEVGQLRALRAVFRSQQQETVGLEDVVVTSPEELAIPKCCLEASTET
UniProt O95166, whole entry: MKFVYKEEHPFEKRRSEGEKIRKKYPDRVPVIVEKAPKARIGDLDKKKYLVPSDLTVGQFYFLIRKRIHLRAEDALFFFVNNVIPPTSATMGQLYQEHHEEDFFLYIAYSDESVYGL
UniProt O94763, whole entry: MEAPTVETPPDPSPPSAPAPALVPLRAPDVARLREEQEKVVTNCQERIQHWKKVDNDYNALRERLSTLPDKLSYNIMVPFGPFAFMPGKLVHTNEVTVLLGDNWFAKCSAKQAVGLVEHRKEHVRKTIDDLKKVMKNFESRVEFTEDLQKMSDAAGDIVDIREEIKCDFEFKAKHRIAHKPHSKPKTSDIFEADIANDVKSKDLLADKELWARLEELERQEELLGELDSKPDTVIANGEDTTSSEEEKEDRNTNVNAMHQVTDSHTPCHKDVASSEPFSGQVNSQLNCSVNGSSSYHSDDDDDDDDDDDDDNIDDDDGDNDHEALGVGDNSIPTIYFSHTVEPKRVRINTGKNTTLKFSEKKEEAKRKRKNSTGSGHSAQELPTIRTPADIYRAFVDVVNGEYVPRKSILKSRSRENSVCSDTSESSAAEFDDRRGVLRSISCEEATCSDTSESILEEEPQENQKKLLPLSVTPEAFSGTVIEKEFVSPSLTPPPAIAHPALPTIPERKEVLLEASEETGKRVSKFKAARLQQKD
UniProt O96018: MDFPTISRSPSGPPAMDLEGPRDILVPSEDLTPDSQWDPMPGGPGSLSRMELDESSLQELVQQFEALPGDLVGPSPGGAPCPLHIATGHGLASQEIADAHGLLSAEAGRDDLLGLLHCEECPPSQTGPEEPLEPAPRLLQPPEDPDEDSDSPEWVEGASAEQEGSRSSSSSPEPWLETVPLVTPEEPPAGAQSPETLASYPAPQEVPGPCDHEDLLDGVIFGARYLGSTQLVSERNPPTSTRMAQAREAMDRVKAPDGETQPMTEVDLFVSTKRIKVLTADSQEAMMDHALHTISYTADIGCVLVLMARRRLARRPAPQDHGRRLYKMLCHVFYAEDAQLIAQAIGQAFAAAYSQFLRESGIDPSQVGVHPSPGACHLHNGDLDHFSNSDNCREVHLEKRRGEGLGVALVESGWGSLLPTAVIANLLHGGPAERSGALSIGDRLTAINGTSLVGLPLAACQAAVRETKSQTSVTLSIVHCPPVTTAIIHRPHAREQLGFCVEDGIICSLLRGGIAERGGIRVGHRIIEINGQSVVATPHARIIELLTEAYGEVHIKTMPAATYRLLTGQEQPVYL

The targets below were run with Cc1nc(Nc2ncc(C(=O)Nc3c(C)cccc3Cl)s2)cc(N2CCN(CCO)CC2)n1 [dasatinib] (assay: log2 fold change of tryptic peptide abundance, ligand vs vehicle (limited proteolysis) (log2 ratio); higher = more trypsin-susceptible (destabilized)). Conditions: ligand concentration: 5 uM; sample: K562 cleared lysate.
“MPZL1 (peptide sequence: KSPSDTEGLVK, peptide start residue: 218) (UniProt O95297)” gave a log2 fold change of -0.0228. “UniProt O75460 (peptide sequence: VMHINVAVETLR, peptide start residue: 240)” gave a log2 fold change of 0.165. “MOCS3 (peptide sequence: LVPVSPLPPK, peptide start residue: 43) (UniProt O95396)” was tested, and the log2 fold change was 0.164. With “GLS (peptide sequence: KCVQSNIVLLTQAFR, peptide start residue: 202) (UniProt O94925)” the log2 fold change was 0.277. In the case of “DHFR (peptide sequence: YKFEVYEKND, peptide start residue: 178) (UniProt P00374)”, the log2 fold change is reported as 0.306. For “UniProt O75820 (peptide sequence: SSGLIQHQR, peptide start residue: 412)”, the log2 fold change was -0.7. “UniProt O95319 (peptide sequence: KAALEAQNALHNIK, peptide start residue: 94)” gave a log2 fold change of 0.312. With “DUS4L (peptide sequence: KKDPIEMFHSGQLVK, peptide start residue: 15) (UniProt O95620)” the log2 fold change was 0.409. In the case of “ZBTB11 (peptide sequence: KTFAELEVVLQPER, peptide start residue: 57) (UniProt O95625)”, the log2 fold change is reported as 0.418. “ARIH2 (peptide sequence: SCWEQHCSVLVK, peptide start residue: 163) (UniProt O95376)” showed a log2 fold change of 0.129. With “CNOT4 (peptide sequence: KALADLIEK, peptide start residue: 413) (UniProt O95628)” the log2 fold change was -0.25. In the case of “CTAG2 (peptide sequence: GPHGGAASAQDGR, peptide start residue: 63) (UniProt O75638)”, the log2 fold change is reported as 0.0766. With “SF3B1 (peptide sequence: IADREDEYKK, peptide start residue: 112) (UniProt O75533)” the log2 fold change was 0.538. With “PPM1B (peptide sequence: SGEEGMPDLAHVMR, peptide start residue: 327) (UniProt O75688)” the log2 fold change was 0.138. “PRPF6 (peptide sequence: LLLKSVRETNPHHPPAWIASAR, peptide start residue: 296) (UniProt O94906)” was tested, and the log2 fold change was 0.633. “PARN (peptide sequence: KLIYQTLSWKYPK, peptide start residue: 211) (UniProt O95453)” showed a log2 fold change of -0.243. “UniProt O95995 (peptide sequence: HLLYEHQNNLTEMK, peptide start residue: 104)” showed a log2 fold change of 0.385. “HSPA4L (peptide sequence: QVYVDKLQELKK, peptide start residue: 672) (UniProt O95757)” showed a log2 fold change of 0.176. With “IPO7 (peptide sequence: FKSDQNLQTALELTRR, peptide start residue: 488) (UniProt O95373)” the log2 fold change was 0.566. With “UniProt P00746 (peptide sequence: THHDGAITER, peptide start residue: 183)” the log2 fold change was 0.395. “JRK (peptide sequence: GIQHLPVAYK, peptide start residue: 246) (UniProt O75564)” gave a log2 fold change of 0.797. Work on “UniProt O95166 (peptide sequence: FVYKEEHPFEK, peptide start residue: 3)” yielded a log2 fold change of -0.19. Work on “AHSA1 (peptide sequence: WGEGDPRWIVEER, peptide start residue: 4) (UniProt O95433)” yielded a log2 fold change of -0.269. For “UniProt O94763 (peptide sequence: NSTGSGHSAQELPTIR, peptide start residue: 371)”, the log2 fold change was -0.28. “APBA3 (peptide sequence: TMPAATYR, peptide start residue: 557) (UniProt O96018)” gave a log2 fold change of 0.183. Target “CPD (peptide sequence: LRQHHDEYEDEIR, peptide start residue: 1337) (UniProt O75976)” has a log2 fold change of 0.207. “FLOT1 (peptide sequence: GEAEAFAIGAR, peptide start residue: 320) (UniProt O75955)” was tested, and the log2 fold change was 0.319.
